Here are results for 1 molecule from article PMC6547726, “Advanced FRET normalization allows quantitative analysis of protein interactions including stoichiometries and relative affinities in living cells” (Scientific Reports, 2019).

For the assay, the target named is T1, YFP-tagged IKKα (UniProt O15111 1-745).
T1 construct: IKKα, IKK subunit α of the NF-kappaB pathway; FRET donor; also called IKK subunit α; source: HeLa cells (clone ACC 57), transfected, in living cells
T1 sequence (looked up): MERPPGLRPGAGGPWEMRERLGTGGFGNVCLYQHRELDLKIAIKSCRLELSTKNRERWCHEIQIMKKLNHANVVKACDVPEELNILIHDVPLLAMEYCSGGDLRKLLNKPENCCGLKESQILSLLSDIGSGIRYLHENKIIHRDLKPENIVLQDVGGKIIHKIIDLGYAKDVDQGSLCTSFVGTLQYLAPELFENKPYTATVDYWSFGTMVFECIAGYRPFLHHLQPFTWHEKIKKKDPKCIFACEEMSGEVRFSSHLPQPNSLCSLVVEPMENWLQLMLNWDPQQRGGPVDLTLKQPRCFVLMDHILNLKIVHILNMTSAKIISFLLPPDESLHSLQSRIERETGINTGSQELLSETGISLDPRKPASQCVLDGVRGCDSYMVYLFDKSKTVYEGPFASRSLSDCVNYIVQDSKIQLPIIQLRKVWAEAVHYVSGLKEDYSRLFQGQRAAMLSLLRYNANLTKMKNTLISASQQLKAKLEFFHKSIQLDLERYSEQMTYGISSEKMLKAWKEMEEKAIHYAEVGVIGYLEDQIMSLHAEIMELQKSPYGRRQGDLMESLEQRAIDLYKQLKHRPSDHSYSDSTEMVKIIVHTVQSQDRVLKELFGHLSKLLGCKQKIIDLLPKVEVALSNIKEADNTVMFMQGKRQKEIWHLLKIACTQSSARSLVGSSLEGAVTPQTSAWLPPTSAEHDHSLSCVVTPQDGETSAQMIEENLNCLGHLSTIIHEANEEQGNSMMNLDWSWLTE
The experiment in a line: FRET or BRET; 3-filter (sensitized emission) FRET by laser scanning confocal microscopy of living transfected HeLa cells; donor YFP, acceptor mCherry; FRET^C, N_FRET and DFRET of single cells over acceptor to donor ratios.

No constants are given. Whether binding was seen depends on the method and setting. In cells and extracts the contact can be indirect. Some binding calls cover weakened binding; strength is not graded here. Tags and fused reporters may be left off the sequences shown.

B1: mCherry-tagged IKKβ (natural protein, UniProt O14920 1-756, looked up)
chain: MSWSPSLTTQTCGAWEMKERLGTGGFGNVIRWHNQETGEQIAIKQCRQELSPRNRERWCLEIQIMRRLTHPNVVAARDVPEGMQNLAPNDLPLLAMEYCQGGDLRKYLNQFENCCGLREGAILTLLSDIASALRYLHENRIIHRDLKPENIVLQQGEQRLIHKIIDLGYAKELDQGSLCTSFVGTLQYLAPELLEQQKYTVTVDYWSFGTLAFECITGFRPFLPNWQPVQWHSKVRQKSEVDIVVSEDLNGTVKFSSSLPYPNNLNSVLAERLEKWLQLMLMWHPRQRGTDPTYGPNGCFKALDDILNLKLVHILNMVTGTIHTYPVTEDESLQSLKARIQQDTGIPEEDQELLQEAGLALIPDKPATQCISDGKLNEGHTLDMDLVFLFDNSKITYETQISPRPQPESVSCILQEPKRNLAFFQLRKVWGQVWHSIQTLKEDCNRLQQGQRAAMMNLLRNNSCLSKMKNSMASMSQQLKAKLDFFKTSIQIDLEKYSEQTEFGITSDKLLLAWREMEQAVELCGRENEVKLLVERMMALQTDIVDLQRSPMGRKQGGTLDDLEEQARELYRRLREKPRDQRTEGDSQEMVRLLLQAIQSFEKKVRVIYTQLSKTVVCKQKALELLPKVEEVVSLMNEDEKTVVRLQEKRQKELWNLLKIACSKVRGPVSGSPDSMNASRLSQPGQLMSQPSTASNSLPEPAKKSEELVAEAHNLCTLLENAIQDTVREQDQSFTALDWSWLQTEEEEHSCLEQAS
notes: IKKβ, IKK subunit β of the NF-kappaB pathway; FRET acceptor; also called IKK subunit β; source: HeLa cells (clone ACC 57), transfected, in living cells
Regarding B1, the binding result is “binds”.
